Test results as given in article PMC5507356.
These are yes or no findings as the source states them, for the method shown. Some results given as binding are weak or reduced against the parent protein; the word gives no strength.

Chains of the proteins cited; added tags and fusions are not shown.
UniProt Q8F509: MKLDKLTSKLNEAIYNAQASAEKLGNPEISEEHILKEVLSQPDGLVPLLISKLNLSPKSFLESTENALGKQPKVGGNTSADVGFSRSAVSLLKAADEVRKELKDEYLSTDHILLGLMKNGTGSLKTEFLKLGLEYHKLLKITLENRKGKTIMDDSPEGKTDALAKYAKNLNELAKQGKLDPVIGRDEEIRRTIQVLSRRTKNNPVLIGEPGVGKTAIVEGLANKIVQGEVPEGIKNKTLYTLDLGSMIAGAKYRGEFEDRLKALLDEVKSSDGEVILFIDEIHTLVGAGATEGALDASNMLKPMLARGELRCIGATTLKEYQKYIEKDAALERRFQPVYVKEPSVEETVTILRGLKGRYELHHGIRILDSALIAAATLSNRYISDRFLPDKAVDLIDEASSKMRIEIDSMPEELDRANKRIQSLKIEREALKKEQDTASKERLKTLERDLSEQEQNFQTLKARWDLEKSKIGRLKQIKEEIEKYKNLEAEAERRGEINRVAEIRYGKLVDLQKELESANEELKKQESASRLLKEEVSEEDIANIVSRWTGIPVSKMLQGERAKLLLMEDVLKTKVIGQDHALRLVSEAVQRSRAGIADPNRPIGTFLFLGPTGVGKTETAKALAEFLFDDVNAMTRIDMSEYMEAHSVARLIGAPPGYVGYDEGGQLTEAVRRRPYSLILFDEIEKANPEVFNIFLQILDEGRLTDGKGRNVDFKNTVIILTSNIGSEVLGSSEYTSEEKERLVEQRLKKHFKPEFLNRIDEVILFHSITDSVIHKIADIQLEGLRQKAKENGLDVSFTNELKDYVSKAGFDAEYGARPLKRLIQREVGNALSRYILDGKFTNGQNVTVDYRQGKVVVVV

How the values were obtained:
[1] = molecular target: ClpB from Leptospira interrogans (ClpBLi), recombinant (Leptospira interrogans) (UniProt Q8F509); assay: AUC; sedimentation velocity, 1.2 mg/ml ClpBLi with 2 mM AMP-PNP, 20°C, 50 mM Tris-HCl pH 7.5, 200 mM KCl, 20 mM MgCl2, 1 mM EDTA, 2 mM β-mercaptoethanol, 5% glycerol; both purified
[2] = molecular target: ClpB from Leptospira interrogans (ClpBLi), recombinant (Leptospira interrogans) (UniProt Q8F509); assay: AUC; sedimentation velocity, 1.2 mg/ml ClpBLi with 2 mM ADP, 20°C, 50 mM Tris-HCl pH 7.5, 200 mM KCl, 20 mM MgCl2, 1 mM EDTA, 2 mM β-mercaptoethanol, 5% glycerol; both purified
[3] = molecular target: ClpB from Leptospira interrogans (ClpBLi), recombinant (Leptospira interrogans) (UniProt Q8F509); assay: condition: only without nucleotide (1.2 mg/ml ClpBLi, 200 mM KCl); AUC; sedimentation velocity, 1.2 mg/ml ClpBLi without nucleotide, 20°C, 50 mM Tris-HCl pH 7.5, 200 mM KCl, 20 mM MgCl2, 1 mM EDTA, 2 mM β-mercaptoethanol, 5% glycerol; both purified

ClpB from Leptospira interrogans (ClpBLi), recombinant (from UniProt Q8F509 1-860)
binding [1]: binds weakly
binding [2]: binds
binding [3]: no binding
